Results are given in words; binding and its absence hold for the method and conditions named. In cells and extracts the contact can be indirect. Some binding calls cover weakened binding; strength is not graded here.
Tests used:
[1] = target: T1, ClC-7 (expression product of the CLCN7 gene), endogenous, from solubilized mouse brain membranes (mouse) (UniProt O70496); test: co-immunoprecipitation from solubilized mouse brain membranes with Ostm1 or ClC-7 antibodies, Western blot
T1 sequence (looked up): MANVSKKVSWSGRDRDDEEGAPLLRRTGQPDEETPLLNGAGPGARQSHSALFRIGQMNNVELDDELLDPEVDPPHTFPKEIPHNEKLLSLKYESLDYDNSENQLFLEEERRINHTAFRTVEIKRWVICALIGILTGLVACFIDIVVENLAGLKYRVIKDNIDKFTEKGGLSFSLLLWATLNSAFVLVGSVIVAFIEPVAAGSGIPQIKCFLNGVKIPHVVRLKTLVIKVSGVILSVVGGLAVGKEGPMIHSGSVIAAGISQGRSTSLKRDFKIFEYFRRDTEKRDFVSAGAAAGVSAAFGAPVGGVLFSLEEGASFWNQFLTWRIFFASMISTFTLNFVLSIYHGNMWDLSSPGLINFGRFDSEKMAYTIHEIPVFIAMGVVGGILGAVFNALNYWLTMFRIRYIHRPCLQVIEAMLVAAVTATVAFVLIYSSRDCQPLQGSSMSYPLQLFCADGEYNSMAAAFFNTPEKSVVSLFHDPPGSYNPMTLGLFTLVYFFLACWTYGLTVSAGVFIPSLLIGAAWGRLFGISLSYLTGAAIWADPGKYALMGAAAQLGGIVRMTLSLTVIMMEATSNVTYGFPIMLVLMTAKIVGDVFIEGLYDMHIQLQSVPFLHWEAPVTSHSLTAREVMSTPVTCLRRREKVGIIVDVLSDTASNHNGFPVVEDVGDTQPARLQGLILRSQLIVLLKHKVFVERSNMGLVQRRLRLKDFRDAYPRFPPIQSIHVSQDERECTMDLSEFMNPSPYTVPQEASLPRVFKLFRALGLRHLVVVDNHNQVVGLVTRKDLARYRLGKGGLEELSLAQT

[2] = target: T1, ClC-7 (expression product of the CLCN7 gene), endogenous, from solubilized mouse brain membranes (mouse); test: co-immunoprecipitation from solubilized mouse brain membranes with antibodies crosslinked to protein A sepharose, Western blot
[3] = target: T1, ClC-7 (expression product of the CLCN7 gene), endogenous, from solubilized mouse brain membranes (mouse); test: co-immunoprecipitation from mouse brain, Western blot (FIG. 3 part (d))

- binding [1]: binds
- binding [2]: binds
- binding [3]: binds
B1: Ostm1 (Osteopetrosis-associated transmembrane protein 1), endogenous, from solubilized mouse brain membranes (other, UniProt Q8BGT0 35-338, looked up)
chain: ALPFTSSRHPGFADLLSEQQLLEVQDLTLSLLQGGGLGPLSLLPPDLPDLEPECRELLMDFANSSAELTACMVRSARPVRLCQTCYPLFQQVAIKMDNISRNIGNTSEGPRCGGSLLTADRMQIVLMVSEFFNSTWQEANCANCLTNNGEDLSNNTEDFLSLFNKTLACFEHNLQGHTYSLLPPKNYSEVCRNCKEAYKNLSLLYSQMQKLNGLENKAEPETHLCIDVEDAMNITRKLWSRTFNCSVTCSDTVSVVAVSVFILFLPVVFYLSSFLHSEQKKRKLILPKRLKSSTSFANIQENAT
modifications: N-linked glycosylation of the luminal domain
notes: Endogenous protein immunoprecipitated from Triton X-100 solubilized mouse brain membranes; also called product of the OSTM1 gene

Source: patent US7851165B2, “Screening compounds for activity in modulating chloride ion transport” (Pharmos Bioscience A/S, priority 2005, dated 2010)
